From PubChem BioAssay AID2685 (National Center for Advancing Translational Sciences (NCATS), 2010)
The list shows a part of the results. These are further read-outs of the screen, such as a control signal, another cell line or another target. No call is given for them. Most of these compounds were active or inconclusive in the main read-out, so they are no random draw. Words in brackets tell the shape of the fitted curve; partial curves, single points and poor fits give uncertain potencies.

Test: qHTS Assay for Lipid Storage Modulators in Drosophila S3 Cells;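 as to cell number change: cells counted by Cell Tracker Red CMTPX staining in the red channel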
Details: BODIPY lipid droplet fluorescence, 18-24 h; for cell number change: measured here: cell count max response, cells fed with added oleic acid
How it was run: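 Drosophila S3 cells got compounds at several concentrations plus oleic acid (400 uM solution). Laser-scanning cytometry with 488 nm excitation read lipid droplets at 500-530 nm and cells at 575-640 nm. Percent activity was relative to 20 uM Triacsin C.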

[1] = measured here: lipid fluorescence (Fed channel) AC50, cells fed with added oleic acid
[2] = measured here: cell number channel AC50, cells fed with added oleic acid

Row | SMILES | cell number change [%] | AC50 [1] | AC50 [2]
1 | COc1ccc(Cl)cc1C1=CC(=O)C[C@H](c2ccc(F)cc2)C1 | 8.99 | 0.731 µM [rising, partial curve] | 
2 | Cc1ccc(C)c(Cn2nnc3c(=O)[nH]c(C4CCN(S(=O)(=O)c5ccc(S(=O)(=O)N(C)C)cc5)CC4)nc32)c1 | 21.7 | 29.1 µM [rising, single point] | 
3 | OC(CN1C2=NCCCN2c2ccccc21)c1ccc(Cl)cc1 (centres undefined) | 14.2 | 0.58 µM [falling, partial curve] | 
4 | CC1=NN(Cc2c(C)nn(Cc3ccccc3)c2C)C(C)(C)C1 | -7.28 | 0.411 µM [falling, partial curve, poor fit] | 
5 | Cc1ccc(CN2C(=O)N/C(=C\c3cccn3-c3cccc(C(=O)O)c3)C2=O)cc1 | -5.29 | 2.06 µM [falling, partial curve] | 6.51 µM [falling, single point]
6 | COc1ccc(NC(=O)CN(c2ccc(OC)c(Cl)c2)S(=O)(=O)c2ccccc2)c(OC)c1 | 5.61 |  | 
7 | O=C(OCc1c(Cl)cccc1Cl)c1ccncc1 | -18.3 |  | 
8 | COc1ccc(NC(=O)CNC(=O)c2nn(-c3ccc(OC)c(OC)c3)c(=O)c3ccccc23)c(OC)c1 | 27.8 |  | 
9 | CC(=O)N(c1nc(CCl)cs1)c1c(C)cc(C)cc1C | -39.2 |  | 14.6 µM [falling, partial curve]
10 | CCCCCCN1C(=O)C(O)=C(C(C)=O)C1c1ccccc1[N+](=O)[O-] (centres undefined) | -31.4 | 23.1 µM [falling, partial curve] | 8.2 µM [falling, partial curve, poor fit]
11 | COc1ccccc1NC(=O)C(=O)NCC1CCCN1S(=O)(=O)c1cccs1 (centres undefined) | -42.4 | 29.1 µM [falling, single point] | 20.6 µM [falling, partial curve, poor fit]
12 | COc1ccc(/C=N/NC(=O)CSc2nnc(CCCc3ccc(OC)c(C)c3)o2)cc1 | 1.43 | 0.146 µM [rising, full curve, poor fit] | 
13 | O=C(Nc1nc2n(n1)C(c1ccccc1)CC(c1ccc(Cl)cc1)N2)c1ccco1 (centres undefined) | -11.8 | 0.00461 µM [falling, full curve, poor fit] | 
14 | Cc1csc(/C(=N\O)c2csc(C)n2)n1 | -5 |  | 
15 | CCN(CC)CCOC(=O)/C=C/c1ccccc1OC |  | 32.6 µM [rising, single point] | 
16 | C#CCOCCOCCOCCNc1nc(N2CCN(C(=O)[C@H]([C@@H](C)CC)n3cc(CCCCN)nn3)CC2)nc(N2CCN(C(=O)[C@H](CCCCN)n3cc(CCC(=O)O)nn3)CC2)n1 | -45 | 25.9 µM [falling, single point] | 29.1 µM [falling, single point]
17 | O=C(O)COc1ccccc1O | -30 | 2.31 µM [falling, full curve] | 3.66 µM [falling, full curve, poor fit]
18 | CCC(CC)c1nnc(NC(=O)c2ccc3c(c2)OCO3)s1 | 19.6 |  | 
19 | CC1CN(C(=O)CCS(=O)(=O)c2ccccc2)CC(C)O1 (centres undefined) | -2.17 |  | 
20 | CCN(CC)S(=O)(=O)c1ccc(NC(=O)c2ccccn2)cc1 | 18.5 | 1.84 µM [rising, full curve] | 

One compound at a time, from the list above:
CCN(CC)CCOC(=O)/C=C/c1ccccc1OC in the list: AC50 [1]: 32.6 µM [rising, single point]
COc1ccc(/C=N/NC(=O)CSc2nnc(CCCc3ccc(OC)c(C)c3)o2)cc1 in the list: cell number change [%]: 1.43; AC50 [1]: 0.146 µM [rising, full curve, poor fit]
CCC(CC)c1nnc(NC(=O)c2ccc3c(c2)OCO3)s1 in the list: cell number change [%]: 19.6
CC(=O)N(c1nc(CCl)cs1)c1c(C)cc(C)cc1C in the list: cell number change [%]: -39.2; AC50 [2]: 14.6 µM [falling, partial curve]

Following part:

Row | SMILES | cell number change [%] | AC50 [1] | AC50 [2]
21 | CCn1cc(CCC(=O)NCc2ccccc2OC)c2ccccc21 | 45.1 |  | 0.00461 µM [rising, full curve, poor fit]
22 | Cn1c(CCNC(=O)c2cccs2)nnc1SCC(=O)Nc1nc(-c2ccccc2)cs1 |  | 29.1 µM [falling, single point] | 6.51 µM [falling, single point]
23 | COCCN1Cc2cccc(C(=O)NCc3ccc4c(c3)OCO4)c2C1=O | 44.6 | 0.13 µM [rising, full curve, poor fit] | 8.2 µM [rising, partial curve]
24 | Cc1sc2ncn(CC(=O)NCCCN3CC(C)CC(C)C3)c(=O)c2c1S(=O)(=O)N1CC(C)CC(C)C1 (centres undefined) | 13.1 | 0.58 µM [rising, single point] | 
25 | Cc1ccc(N(CCC(=O)O)S(=O)(=O)c2ccc(C)cc2)cc1 | -35.7 | 14.6 µM [falling, partial curve] | 25.9 µM [falling, partial curve]
26 | Cc1cc(C)cc(-n2c(SCC(=O)NCc3ccco3)nc3ccccc3c2=O)c1 | 40.7 | 16.4 µM [rising, partial curve] | 4.61 µM [rising, full curve]
27 | COc1ccccc1N1CCN(C(=O)CN(c2ccc(C)c(C)c2)S(C)(=O)=O)CC1 | 31.3 | 6.51 µM [rising, single point] | 14.6 µM [rising, single point]
28 | Cc1cc(C2CCCCC2)n(O)c(=O)c1 | -54.8 |  | 11.6 µM [falling, partial curve]
29 | CC(Sc1ccc(S(=O)(=O)N2CCOCC2)cn1)C(=O)Nc1ccc(Cl)cc1Cl (centres undefined) | 6.08 |  | 
30 | Cc1cc(/C=C2/NC(=O)NC2=O)c(C)n1C | -4.17 | 3.66 µM [falling, single point] | 4.61 µM [falling, single point]
31 | O=C(Nc1ccc(N2CCN(C(=O)c3ccccc3)CC2)cc1)c1ccc([N+](=O)[O-])o1 | -26.4 | 3.26 µM [falling, single point] | 2.31 µM [falling, full curve, poor fit]
32 | O=C(CCN1C(=O)C2CC=CCC2C1=O)Nc1cccc(S(=O)(=O)N2CCCCC2)c1 (centres undefined) | -13.3 |  | 
33 | Cc1cccc(-c2nnc(SCC#N)n2-c2ccccc2)c1 | 3.48 | 4.11 µM [rising, full curve, poor fit] | 
34 | CCOc1ccc(OCCN2C(=O)c3ccccc3C2=O)cc1 | -15.7 |  | 
35 | Cc1ccc(C)c(OCCNc2ncccc2[N+](=O)[O-])c1 | -12.9 | 29.1 µM [falling, single point] | 
36 | Cc1cccc(S(=O)(=O)Nc2nc3ccccc3nc2NCc2ccc3c(c2)OCO3)c1 | 12.8 | 13 µM [rising, partial curve, poor fit] | 
37 | Cc1ccc2oc(=O)c3cnn(CC(=O)N4CCN(c5ccccn5)CC4)c3c2c1 |  |  | 0.0058 µM [rising, full curve, poor fit]
38 | C[C@H](NC(=O)Nc1cccc(Br)c1)C(=O)O | -38.6 | 18.4 µM [falling, partial curve] | 
39 | COc1ccccc1C(=O)OCCN=C1NS(=O)(=O)c2ccccc21 | -4.44 | 29.1 µM [falling, single point] | 
40 | COc1ccccc1N1CCN(/N=C/c2cc(OC)c(OC(C)=O)c(OC)c2)CC1 | 12.4 | 5.8 µM [rising, single point] | 7.31 µM [rising, partial curve, poor fit]

Row | SMILES | cell number change [%] | AC50 [1] | AC50 [2]
41 | Cc1ccc(C(=O)NCCCc2ccccc2)c(Cl)c1 | 25.9 |  | 0.82 µM [rising, full curve, poor fit]
42 | COc1ccc(CN2CCCN(S(=O)(=O)c3ccc(Br)cc3)CC2)cc1 | 8.21 | 32.6 µM [rising, single point] | 
43 | Oc1ccccc1N=Cc1sc2ccccc2c1Cl | -23.1 | 2.59 µM [falling, full curve] | 
44 | O=C(Nc1ccc(Cl)cc1)N1CCC(c2nc(-c3ccc(F)cc3)no2)CC1 | -36.5 |  | 18.4 µM [falling, single point]
45 | COc1ccc(-c2cn3c(C)c(C(=O)Nc4cccc(C)n4)sc3n2)cc1 | -34.5 | 29.1 µM [falling, single point] | 29.1 µM [falling, single point]
46 | C=Cn1c(N2CCOCC2)nc2c1c(=O)[nH]c(=O)n2C |  | 29.1 µM [rising, single point] | 
47 | CCCC(=O)Nc1ccccc1NC(=O)c1ccc2c(c1)OCO2 | -4.14 | 0.13 µM [falling, full curve, poor fit] | 6.51 µM [falling, single point]
48 | CCNC(C(=O)c1c[nH]c2c(CC)cccc12)c1ccccc1 (centres undefined) | 15 |  | 
49 | CCOC(=O)c1c(C)[nH]c(C)c1S(=O)(=O)N(C)CC(=O)Nc1cccc(F)c1 | -8.06 |  | 
50 | CCNC(=O)CCSc1nnc(-c2ccco2)o1 | 47.2 |  | 
51 | O=C(CCNS(=O)(=O)c1cccc2nonc12)NC1CCCc2ccccc21 (centres undefined) |  | 0.13 µM [falling, full curve, poor fit] | 
52 | CCOC(=O)C1(Cc2ccccc2C)CCCN(C(=O)c2ccccn2)C1 (centres undefined) | 27.4 | 7.31 µM [rising, partial curve, poor fit] | 
53 | Cc1oc(-c2ccccc2F)nc1CN1CCC(C(=O)NC2CC2)CC1 | 15.8 | 0.731 µM [rising, full curve, poor fit] | 
54 | COc1ccc2nc(C)c3cc(C)oc3c2c1 |  |  | 6.51 µM [rising, single point]
55 | CN(C)S(=O)(=O)N1CCc2ccccc21 | 1.95 | 0.13 µM [falling, full curve, poor fit] | 
56 | CC1CCCC(C(=O)O)N1C(=O)CCSC(=O)c1ccccc1 (centres undefined) | -22.7 | 20.6 µM [falling, single point] | 
57 | O=C(Nc1nc2ccccc2s1)c1ccc(F)cc1 | 7.87 | 0.00517 µM [rising, full curve, poor fit] | 
58 | O=C(CN1CCN(c2ccccn2)CC1)Nc1nc2ccccc2s1 | 8.45 | 18.4 µM [falling, single point] | 
59 | CC(C)N(C(=O)CSc1nnc(NC(=O)c2ccco2)s1)C(C)C | -24.5 |  | 
